{"sequences": {"note": "By UniProt entry, the sequences of proteins in these tests, tags left out. Where a name states a change or a piece, a line headed by the entry shows the natural chain unless it says otherwise. Residues count along the entry.", "UniProt Q5ZYC6": "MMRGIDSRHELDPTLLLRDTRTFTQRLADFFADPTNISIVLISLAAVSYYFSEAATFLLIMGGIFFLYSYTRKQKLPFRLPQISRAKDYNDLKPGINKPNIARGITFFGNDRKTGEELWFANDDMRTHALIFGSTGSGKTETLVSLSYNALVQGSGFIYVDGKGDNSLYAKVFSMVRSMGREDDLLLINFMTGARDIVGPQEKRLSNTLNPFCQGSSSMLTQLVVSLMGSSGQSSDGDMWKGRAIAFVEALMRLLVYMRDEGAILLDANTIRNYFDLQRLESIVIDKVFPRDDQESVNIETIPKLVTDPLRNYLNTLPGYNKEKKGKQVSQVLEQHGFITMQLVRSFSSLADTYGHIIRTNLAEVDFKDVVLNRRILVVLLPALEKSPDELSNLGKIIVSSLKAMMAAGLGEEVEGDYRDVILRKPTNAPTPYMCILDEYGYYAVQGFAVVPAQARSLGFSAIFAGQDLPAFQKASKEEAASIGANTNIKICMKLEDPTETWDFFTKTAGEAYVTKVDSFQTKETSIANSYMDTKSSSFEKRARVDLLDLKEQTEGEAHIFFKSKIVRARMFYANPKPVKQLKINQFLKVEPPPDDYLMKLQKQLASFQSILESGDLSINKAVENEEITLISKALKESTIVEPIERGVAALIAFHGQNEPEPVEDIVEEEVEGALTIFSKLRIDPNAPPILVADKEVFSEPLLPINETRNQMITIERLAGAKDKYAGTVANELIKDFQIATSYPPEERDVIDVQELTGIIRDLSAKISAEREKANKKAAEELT", "UniProt Q5ZU30, residues 1-273": "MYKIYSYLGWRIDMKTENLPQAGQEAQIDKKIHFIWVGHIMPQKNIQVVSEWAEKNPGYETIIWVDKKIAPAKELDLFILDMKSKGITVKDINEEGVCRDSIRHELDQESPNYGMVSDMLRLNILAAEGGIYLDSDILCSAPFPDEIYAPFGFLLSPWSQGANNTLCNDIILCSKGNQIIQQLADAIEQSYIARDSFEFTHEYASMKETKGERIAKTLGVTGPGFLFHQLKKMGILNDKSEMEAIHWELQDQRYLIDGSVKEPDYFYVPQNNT"}, "source": "paper PMC7251119", "key": {"[1]": {"target": "(His)10-MBP-DotL(656-783)–IcmSW–LvgA (Legionella pneumophila) (UniProt Q5ZYC6)", "experiment": "native gel or EMSA; both purified"}, "[2]": {"target": "SetA(1-273) (Legionella pneumophila) (UniProt Q5ZU30)", "experiment": "SEC; […]; 20 mM Tris-HCl (pH 7.5) plus 100 mM NaCl or 300 mM NaCl; […]; both purified"}}, "note": "No constants are given. Whether binding was seen depends on the method and setting.", "data": [{"substance": "SetA(1-273) (from UniProt Q5ZU30 1-273) (domain or fragment)", "values": [{"measurement": "binding", "setting": "[1]", "result": "no binding"}, {"measurement": "binding", "setting": "[2]", "result": "no binding"}]}]}
